Source: patent publication US8497372B2, “Use of substituted quinazoline compounds in treating age-related macular degeneration” (Hutchison Medipharma Enterprises Limited, priority 2008, dated 2013)
Some of these results come from one statement about several compounds together.

By UniProt entry, the sequences of proteins in these tests, tags left out. Residues count along the entry.
UniProt P35968, 834-1162 limits assumed: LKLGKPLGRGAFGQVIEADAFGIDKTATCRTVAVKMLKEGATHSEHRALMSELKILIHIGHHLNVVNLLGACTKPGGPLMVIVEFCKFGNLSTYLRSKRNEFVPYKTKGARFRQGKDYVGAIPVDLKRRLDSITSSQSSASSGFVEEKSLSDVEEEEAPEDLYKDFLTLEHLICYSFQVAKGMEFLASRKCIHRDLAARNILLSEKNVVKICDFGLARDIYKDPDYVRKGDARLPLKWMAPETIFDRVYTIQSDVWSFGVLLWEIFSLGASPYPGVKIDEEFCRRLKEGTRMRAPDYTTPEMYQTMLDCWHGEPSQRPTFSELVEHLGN

Target: T1, KDR catalytic domain (Homo sapiens, UniProt P35968)
T1 construct: was mixed with a KDR catalytic domain (Invitrogen, Cat. PV3660); purchased Invitrogen PV3660
Assay: Inhibition of KDR kinase activity (Z'-LYTE Tyr1 Peptide assay)
Format: biochemical
Conditions: Z'-LYTE Tyr1 peptide 2 μM, kinase 0.3 μg/ml

CNC(=O)c1c(C)oc2cc(Oc3ncnc4cc(OC)c(OC)cc34)ccc12 [Compound 1, 6-(6,7-dimethoxyquinazolin-4-yloxy)-N,2-dimethylbenzofuran-3-carboxamide]
Inhibition of the activity of KDR: inhibited the activity of KDR
